The list does not hold the whole screen: it is rich in T/C values a quarter to a half above the control, in often repeated tests (any T/C) and in doses without a T/C. Other doses and runs of a compound stand elsewhere. T/C gives the treated animals as a percentage of the vehicle group. Some entries give survivors of the animals treated and no T/C: the source holds a T/C of zero for them, seemingly a mark for toxic or unscored doses. Some doses without a T/C left all or most animals alive at the check, yet need not have been tolerated: survival well below the control is almost never listed, so the zero probably covers shortened survival too. Counts of survivors are from the toxicity check (mostly the fifth day) where no day follows; animals may have died later. Schedules are NCI's codes, read here as Q, the interval in days (D) or hours (H), X, the number of doses. For survival time, the PubChem record calls one and a half times the control and up active, and a quarter to a half above the control has no call in these data; cut-offs in other NCI protocols can differ.
System: CD2F1 mice, L1210 leukemia ip, survival T/C
Assay: NCI In Vivo Anticancer Drug Screen. Data for tumor model L1210 Leukemia (intraperitoneal) in CD2F1 (CDF1) mice
Conditions: higher T/C = longer survival
Procedure, shortened: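 Tumor-bearing mice (transplanted tumor) were split into treated and vehicle control groups, and the measured endpoint of each treated group was divided by that of its vehicle controls.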

[1] = T/C endpoint: mean survival time, dose: 300.0 mg/kg/injection, schedule: Q01DX001 (ip), vehicle: saline
[2] = T/C endpoint: mean survival time, dose: 100.0 mg/kg/injection, schedule: Q04DX003 (ip), vehicle: saline
[3] = T/C endpoint: mean survival time, dose: 400.0 mg/kg/injection, schedule: Q01DX001 (ip), vehicle: saline with Tween-80
[4] = T/C endpoint: mean survival time, dose: 400.0 mg/kg/injection, schedule: Q04DX003 (ip), vehicle: saline
[5] = T/C endpoint: mean survival time, dose: 400.0 mg/kg/injection, schedule: Q04DX003 (ip), vehicle: saline with Tween-80

`CC(CCCC#N)[N+](=O)[O-]` (stereo unspecified) was tested, and the survivor count (T/C endpoint: mean survival time, dose: 80.0 mg/kg/injection, schedule: Q01DX001 (ip), vehicle: saline) was 2 of 4, the survivor count (T/C endpoint: mean survival time, dose: 200.0 mg/kg/injection, schedule: Q01DX001 (ip), vehicle: saline) was 0 of 4 and the survivor count (T/C endpoint: mean survival time, dose: 400.0 mg/kg/injection, schedule: Q01DX001 (ip), vehicle: saline) was 0 of 4.

In the case of `CSc1[nH]c2ncnc(Cl)c2c1C#N`, the survivor count [1] is reported as 0 of 6.

`O=C(O)c1ccccc1C(c1ccccc1)c1ccccc1` was tested, and the survivor count (T/C endpoint: mean survival time, dose: 200.0 mg/kg/injection, schedule: Q01DX009 (ip), vehicle: saline with Tween-80) was 2 of 6.

In the case of `O=S1(=O)CC(Cl)(Br)C1` (tested in a mixture with another compound), the survivor count (T/C endpoint: mean survival time, dose: 100.0 mg/kg/injection, schedule: Q01DX009 (ip), vehicle: Klucel (hydroxypropylcellulose) (HPC)) is reported as 6 of 6, the survivor count (T/C endpoint: mean survival time, dose: 200.0 mg/kg/injection, schedule: Q01DX009 (ip), vehicle: Klucel (hydroxypropylcellulose) (HPC)) is reported as 4 of 6 and the survivor count (T/C endpoint: mean survival time, dose: 400.0 mg/kg/injection, schedule: Q01DX009 (ip), vehicle: Klucel (hydroxypropylcellulose) (HPC)) is reported as 6 of 6.

`Cc1[nH]c2ccc([N+](=O)[O-])cc2c1CN(C)C` was tested, and the survivor count [1] was 0 of 6.

In the case of `CC1=NCCCN=C(C)C(C)=NCCCN=C1C.[Ni+2].[O-][Cl+3]([O-])([O-])O`, the survivor count (T/C endpoint: mean survival time, dose: 100.0 mg/kg/injection, schedule: Q04DX002 (ip), vehicle: saline with Tween-80) is reported as 0 of 3, the survivor count [2] is reported as 0 of 6 and the survivor count (T/C endpoint: mean survival time, dose: 200.0 mg/kg/injection, schedule: Q04DX002 (ip), vehicle: saline with Tween-80) is reported as 0 of 3.

With `Nc1nc(=O)n(CCCOc2ccc([N+](=O)[O-])c(Cl)c2)cc1-c1ccc(Cl)c(Cl)c1` the survivor count (T/C endpoint: mean survival time, dose: 100.0 mg/kg/injection, schedule: Q01DX001 (ip), vehicle: saline with Tween-80) was 6 of 6 and the survivor count [3] was 5 of 6.

With `COC(=O)C1(C)CCCC2(C)C3CCC(C)(CCOC(C)=O)CC3C(OC(C)=O)CC12` (stereo unspecified) the survivor count (T/C endpoint: mean survival time, dose: 200.0 mg/kg/injection, schedule: Q01DX001 (ip), vehicle: saline with Tween-80) was 6 of 6 and the survivor count [3] was 6 of 6.

For `CCN(CC)C(=O)N1CCN(c2ccccc2)CC1`, the survivor count [4] was 0 of 6.

`O=c1[nH]c(/C=C/C=C/c2ccccc2)c([N+](=O)[O-])c(=O)[nH]1` was tested, and the T/C (T/C endpoint: mean survival time, dose: 400.0 mg/kg/injection, schedule: Q04DX002 (ip), vehicle: Klucel (hydroxypropylcellulose) (HPC)) was 128 % of control.

In the case of `O=C(O)c1c(F)c(F)c(F)c(C(=O)O)c1F`, the survivor count [2] is reported as 6 of 6, the survivor count (T/C endpoint: mean survival time, dose: 200.0 mg/kg/injection, schedule: Q04DX003 (ip), vehicle: saline with Tween-80) is reported as 3 of 6 and the survivor count [5] is reported as 0 of 6.

With `Nc1nc2c(ncn2-c2cccc(NC(=O)Nc3ccc(S(=O)(=O)F)c(Cl)c3)c2)c(=O)[nH]1` (tested in a mixture with another compound) the survivor count [3] was 6 of 6.

`CCCCC1CCC(N)CC1` (stereo unspecified) was tested, and the survivor count (T/C endpoint: mean survival time, dose: 200.0 mg/kg/injection, schedule: Q04DX003 (ip), vehicle: saline) was 0 of 6 and the survivor count [4] was 0 of 6.

`CN1CCC(C#N)(c2ccccn2)CC1` was tested, and the survivor count (T/C endpoint: mean survival time, dose: 20.0 mg/kg/injection, schedule: Q01DX009 (ip), vehicle: saline with Tween-80) was 3 of 6.

`COC1=C(C)C(=O)C2=C(C1=O)C(CO)N1C(C#N)C3CC4C(C1C2N1CCOC41)N3C` (stereo unspecified) was tested, and the survivor count (T/C endpoint: median survival time, dose: 2.0 mg/kg/injection, schedule: Q01DX005 (ip), vehicle: acid diluted with saline) was 6 of 6 and the survivor count (T/C endpoint: median survival time, dose: 2.0 mg/kg/injection, schedule: Q01DX009 (ip), vehicle: saline + alcohol) was 4 of 6.

In the case of `COc1ccc2c(c1)C=CC(C#N)N2` (stereo unspecified), the survivor count [5] is reported as 6 of 6.

With `CCOCCc1ccncc1` the survivor count [4] was 0 of 6.

With `Cc1c(Cl)c(C)c(Cl)c(O)c1Cl` (tested in a mixture with another compound) the survivor count (T/C endpoint: mean survival time, dose: 200.0 mg/kg/injection, schedule: Q01DX005 (ip), vehicle: saline with Tween-80) was 0 of 3.

In the case of `CC1CC(C)(C)NC(C)(C(C)CC(C)(C)C)O1` (stereo unspecified), the survivor count [3] is reported as 0 of 6.

In the case of `COCC(O)CN1CCN(c2cccc3c2CCCC3)CC1` (stereo unspecified), the survivor count [3] is reported as 0 of 6.

For `CCC(C)OC(=O)CCl` (stereo unspecified), the survivor count (T/C endpoint: mean survival time, dose: 300.0 mg/kg/injection, schedule: Q01DX001 (ip), vehicle: other) was 2 of 6.

In the case of `CCCCCCCCCCSC(=N)N`, the survivor count (T/C endpoint: mean survival time, dose: 50.0 mg/kg/injection, schedule: Q01DX001 (ip), vehicle: Klucel (hydroxypropylcellulose) (HPC)) is reported as 1 of 3, the survivor count (T/C endpoint: mean survival time, dose: 100.0 mg/kg/injection, schedule: Q01DX001 (ip), vehicle: Klucel (hydroxypropylcellulose) (HPC)) is reported as 1 of 3 and the survivor count (T/C endpoint: mean survival time, dose: 200.0 mg/kg/injection, schedule: Q01DX001 (ip), vehicle: Klucel (hydroxypropylcellulose) (HPC)) is reported as 0 of 3.
